Measured values from article doi:10.1101/2025.01.21.633742.

The chains behind the UniProt entries cited, without tags or fusion partners.
UniProt P31094: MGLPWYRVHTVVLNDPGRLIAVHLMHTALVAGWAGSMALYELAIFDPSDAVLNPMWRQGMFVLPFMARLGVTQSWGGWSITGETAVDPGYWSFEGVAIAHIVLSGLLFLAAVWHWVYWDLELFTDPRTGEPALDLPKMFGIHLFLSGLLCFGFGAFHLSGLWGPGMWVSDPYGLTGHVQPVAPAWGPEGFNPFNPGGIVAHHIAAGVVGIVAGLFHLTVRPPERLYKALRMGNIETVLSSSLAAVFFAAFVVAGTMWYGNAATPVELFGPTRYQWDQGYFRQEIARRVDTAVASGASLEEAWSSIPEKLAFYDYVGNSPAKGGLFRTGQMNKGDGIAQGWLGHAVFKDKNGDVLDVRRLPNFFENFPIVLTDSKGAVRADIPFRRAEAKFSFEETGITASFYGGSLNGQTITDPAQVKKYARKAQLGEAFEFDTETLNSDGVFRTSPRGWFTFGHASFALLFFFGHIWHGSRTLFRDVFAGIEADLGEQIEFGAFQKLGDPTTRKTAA

Key:
[1] = molecular target: hexahistidine-tagged PSII core antenna protein CP43 (Synechococcus elongatus PCC 7942) (UniProt P11004); assay: pull-down + cross-linking
[2] = molecular target: FLAG-tagged NblS (sensory histidine kinase NblS of Synechococcus elongatus PCC 7942) (Synechococcus elongatus PCC 7942) (UniProt Q8RQ68); assay: co-IP + cross-linking

Row | Substance | binding [1] | binding [2]
1 | FLAG-tagged NblS (sensory histidine kinase NblS of Synechococcus elongatus PCC 7942) (from UniProt Q8RQ68) (enzyme) | no binding | 
2 | PSII core antenna CP47 protein (from UniProt P31094 1-508) |  | binds
3 | PSII reaction center D2 protein (from UniProt P11005 1-352) |  | binds
4 | hexahistidine-tagged PSII core antenna protein CP43 (from UniProt P11004 1-461) |  | no binding

These are yes or no findings as the source states them, for the method shown. Binding seen in cells or lysates may run through a third protein. For some of these results: Binding can be weak; no strength is given.
